Experimental data taken from article PMC4071561.

Target: T1, CAPERα (Coactivator of AP1 and Estrogen Receptor), endogenous human (human (endogenous in HEK293 and HFFs)) (UniProt Q14498)
T1 sequence: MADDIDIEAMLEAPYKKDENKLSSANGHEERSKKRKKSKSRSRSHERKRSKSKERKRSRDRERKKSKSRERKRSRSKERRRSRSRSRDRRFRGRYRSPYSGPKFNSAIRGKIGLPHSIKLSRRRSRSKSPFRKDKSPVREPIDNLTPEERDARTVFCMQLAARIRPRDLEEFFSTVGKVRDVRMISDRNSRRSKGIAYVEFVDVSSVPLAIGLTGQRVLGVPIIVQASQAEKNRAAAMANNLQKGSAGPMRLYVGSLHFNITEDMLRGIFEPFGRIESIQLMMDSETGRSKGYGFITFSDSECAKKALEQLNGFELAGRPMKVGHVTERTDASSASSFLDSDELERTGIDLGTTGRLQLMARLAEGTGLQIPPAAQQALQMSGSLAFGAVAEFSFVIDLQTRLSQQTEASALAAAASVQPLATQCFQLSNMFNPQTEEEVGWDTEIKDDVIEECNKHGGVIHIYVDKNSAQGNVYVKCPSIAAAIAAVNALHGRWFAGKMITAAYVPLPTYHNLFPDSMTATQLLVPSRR
Assay: co-IP; HEK293 cells transfected with anti-TBX3 shRNA and expressing untagged mouse Tbx3 proteins; IP with anti-CAPERα (endogenous), immunoblot with anti-Tbx3

“mouse Tbx3 N227D (DNA binding domain point mutant; N277D in the methods) (from UniProt P70324-2)” was tested, and the binding was “binds”.

These are yes or no findings as the source states them, for the method shown. In cells and extracts the contact can be indirect. Binding can be weak; no strength is given.
